From US20220395575A1, “COMBINATION THERAPY WITH PROTEIN KINASE B ACTIVATION INHIBITOR TO TREAT CANCER” (H. LEE MOFFITT CANCER CENTER AND RESEARCH INSTITUTE, INC., priority 2019, published 2022)
At least one structure is not confirmed: it was looked up by name or label, or the drawing left a doubt.

Legend:
Assay type in all cases: cell-based
Settings in all cases: in combination with Akt activation inhibitor TCN-P
[1] = test system: THP1 human leukemic cells; assay: viability of THP1 human leukemic cells, combination with TCN-P
[2] = test system: HL60 human leukemic cells; assay: viability of HL60 human leukemic cells, combination with TCN-P
[3] = test system: U937 human leukemic cells; assay: viability of U937 human leukemic cells, combination with TCN-P

Measured: synergy with TCN-P to inhibit viability

C[C@H](Nc1ncnc2nc[nH]c12)c1cc2cccc(Cl)c2c(=O)n1-c1ccccc1 [IPI-145, duvelisib]
synergizes with TCN-P: all assays above
